{"sequences": {"note": "Amino acid sequences for entries named in this document (tags omitted).", "UniProt P33176": "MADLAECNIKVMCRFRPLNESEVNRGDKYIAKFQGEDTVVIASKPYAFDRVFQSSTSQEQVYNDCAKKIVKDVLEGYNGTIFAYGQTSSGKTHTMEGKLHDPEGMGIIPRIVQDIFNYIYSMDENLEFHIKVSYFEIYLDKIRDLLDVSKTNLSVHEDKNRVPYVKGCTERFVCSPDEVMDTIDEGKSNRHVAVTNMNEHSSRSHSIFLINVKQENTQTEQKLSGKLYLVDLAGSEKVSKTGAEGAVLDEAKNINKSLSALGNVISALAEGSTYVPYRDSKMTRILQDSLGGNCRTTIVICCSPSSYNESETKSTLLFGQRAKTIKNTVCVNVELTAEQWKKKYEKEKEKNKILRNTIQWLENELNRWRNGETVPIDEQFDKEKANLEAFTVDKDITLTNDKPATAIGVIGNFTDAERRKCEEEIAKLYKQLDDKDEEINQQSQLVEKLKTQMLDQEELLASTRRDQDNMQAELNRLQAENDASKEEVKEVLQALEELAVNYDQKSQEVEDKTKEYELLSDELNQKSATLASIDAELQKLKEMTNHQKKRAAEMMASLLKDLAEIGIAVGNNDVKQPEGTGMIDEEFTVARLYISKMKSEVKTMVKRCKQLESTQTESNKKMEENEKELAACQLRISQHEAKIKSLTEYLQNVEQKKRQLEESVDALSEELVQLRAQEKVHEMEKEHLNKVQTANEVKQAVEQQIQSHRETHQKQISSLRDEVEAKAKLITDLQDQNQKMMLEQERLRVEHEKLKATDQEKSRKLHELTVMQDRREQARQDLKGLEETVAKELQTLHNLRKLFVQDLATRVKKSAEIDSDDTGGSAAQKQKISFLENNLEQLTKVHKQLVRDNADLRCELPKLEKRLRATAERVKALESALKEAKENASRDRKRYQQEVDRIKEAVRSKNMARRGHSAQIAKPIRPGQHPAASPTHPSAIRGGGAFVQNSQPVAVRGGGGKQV"}, "source": "paper PMC6446838", "key": {"[1]": {"molecular_target": "full-length KIF5B-GFP with C-terminal Strep-tag (human) (UniProt P33176)", "assay": "affinity purification with mass spectrometry + pull-down; as a2, but the ionic strength of the washing buffer was increased (high-salt wash buffer with 1.5 M NaCl)"}, "[2]": {"molecular_target": "full-length KIF5B-GFP with C-terminal Strep-tag (human) (UniProt P33176)", "assay": "affinity purification with mass spectrometry + pull-down; Strep-tagged kinesin-GFP purified from HEK293T lysate on StrepTactin beads, washed with a low-ionic-strength buffer; copurifying endogenous proteins found by mass spectrometry and Western blotting"}}, "note": "No constants are given. Whether binding was seen depends on the method and setting. In cells and extracts the contact can be indirect. These calls come from enrichment with a bait or labelling near it, and not all partners need be listed.", "data": [{"binder": "MAP7D3, endogenous in HEK293T cells (protein, UniProt Q8IWC1 1-876) MMADGAAAGAGGSPSLRELRARMVAAANEIAKERRKQDVVNRVATHSSNIRSTFKPVIDGSMLKNDIKQRLARERREEKRRQQDANKETQLLEKERKTKLQYEKQMEERQRKLKERKEKEEQRRIAAEEKRHQKDEAQKEKFTAILYRTLERRRLADDYQQKRWSWGGSAMANSESKTANKRSASTEKLEQGTSALIRQMPLSSAGLQNSVAKRKTDKERSSSLNRRDSNLHSSTDKEQAERKPRVTGVTNYVMQYVTVPLRKCTSDELRAVMFPMSTMKIPPQTKVEESPLEKVETPPKASVDAPPQVNVEVFCNTSMEASPKAGVGMAPEVSTDSFPVVSVDVSPVVSTYDSEMSMDASPELSIEALPKVDLETVPKVSIVASPEASLEAPPEVSLEALPEVSVEAAPEGSLEAPPKGSAEVAPKESVKGSPKESMEASPEAMVKASPKTSLEASMEASPKAKARDAPKKSEMDKQALIPIAKKRLSSYTECYKWSSSPENACGLPSPISTNRQIQKNCPPSPLPLISKQSPQTSFPYKIMPIQHTLSVQSASSTVKKKKETVSKTTNRCEALSQRHMIYEESGNKSTAGIMNAEAATKILTELRRLAREQREKEEEERQREEMQQRVIKKSKDMAKEAVGGQAEDHLKLKDGQQQNETKKKKGWLDQEDQEAPLQKGDAKIKAQEEADKRKKEHERIMLQNLQERLERKKRIEEIMKRTRKTDVNASKVTETSSHDIYEEAEADNEESDKDSLNEMFPSAILNGTGSPTKFKMPFNNAKKMTHKLVFLEDGTSQVRKEPKTYFNGDLKNFRQKSMKDTSIQEVVSRPSSKRMTSHTTKTRKADETNTTSRSSAQTKSEGFHDILPKSSDTFRQ", "values": [{"measurement": "binding", "setting": "[1]", "result": "binds weakly"}, {"measurement": "binding", "setting": "[2]", "result": "binds"}]}]}
